{
  "source": "the supplement of paper PMC11732987",
  "about": "“Enantioselective OTUD7B fragment discovery through chemoproteomics screening and high-throughput optimisation” (Communications Chemistry, 2025)",
  "note": "This is one part of the list. The data scatter; read single values as rough.",
  "data": [
    {"compound": "ClCC(=O)N[C@H]1CCCc2ccccc12", "assay": "log2 mean competition ratio of IA-DTB cysteine labelling (DMSO/compound) (log2 ratio); higher = stronger cysteine engagement by compound", "details": "50 µM; treatment time: 4 h; cell line lysate: HEK293T", "procedure": "(§1)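 IA-DTB competitive cysteine chemoproteomics in HEK293T RIPA lysate. Lysates were treated with compound 29 or 30 at 50 or 200 µM for 4 h, then IA-DTB (500 µM, 1 h), trypsin-digested, NeutrAvidin-enriched and analysed by diaPASEF. Competition ratio = intensity DMSO / intensity compound (n=4 treated, n=64 DMSO); binding: mean log2 CR ≥ 1 and p ≤ 0.05 plus QC filters. Target is the cysteine site.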", "values": [
      {"target": "EML4 C311 (UniProt Q9HC35)", "log2 mean competition ratio": 0.0708},
      {"target": "FAM171A2 C742 (UniProt A8MVW0)", "log2 mean competition ratio": -0.156},
      {"target": "EMSY C194 (UniProt Q7Z589)", "log2 mean competition ratio": 0.221},
      {"target": "ESRP2 C86 (UniProt Q9H6T0)", "log2 mean competition ratio": 0.15},
      {"target": "ESPL1 C1369 (UniProt Q14674)", "log2 mean competition ratio": -0.316},
      {"target": "ETF1 C335 (UniProt P62495)", "log2 mean competition ratio": -0.152},
      {"target": "ESCO2 C518 (UniProt Q56NI9)", "log2 mean competition ratio": 0.0709},
      {"target": "EXOC8 C521 (UniProt Q8IYI6)", "log2 mean competition ratio": 0.205},
      {"target": "ELP1 C23 (UniProt O95163)", "log2 mean competition ratio": 0.254},
      {"target": "ESRRG C104", "log2 mean competition ratio": 0.0696},
      {"target": "ESD C28 (UniProt P10768)", "log2 mean competition ratio": -0.311},
      {"target": "ERCC6 C143", "log2 mean competition ratio": -0.211},
      {"target": "ELP2 C204 (UniProt Q6IA86)", "log2 mean competition ratio": -0.353},
      {"target": "EMG1 C66 (UniProt Q92979)", "log2 mean competition ratio": -0.139},
      {"target": "FAM189B C163", "log2 mean competition ratio": -0.026},
      {"target": "FAM118B C319 (UniProt Q9BPY3)", "log2 mean competition ratio": 0.555},
      {"target": "ETV6 C8 (UniProt P41212)", "log2 mean competition ratio": -0.306},
      {"target": "FAM117B C483 (UniProt Q6P1L5)", "log2 mean competition ratio": 0.204},
      {"target": "EPC1 C797 (UniProt Q9H2F5)", "log2 mean competition ratio": -0.0396},
      {"target": "ELP1 C820 (UniProt O95163)", "log2 mean competition ratio": -0.707}
    ]},
    {"compound": "ClCC(=O)N[C@H]1CCCc2ccccc12", "assay": "log2 mean competition ratio of IA-DTB cysteine labelling (DMSO/compound) (log2 ratio); higher = stronger cysteine engagement by compound", "details": "200 µM; treatment time: 4 h; cell line lysate: HEK293T", "procedure": "as §1", "values": [
      {"target": "EML4 C311 (UniProt Q9HC35)", "log2 mean competition ratio": -0.373},
      {"target": "FAM171A2 C742 (UniProt A8MVW0)", "log2 mean competition ratio": 0.188},
      {"target": "EMSY C194 (UniProt Q7Z589)", "log2 mean competition ratio": 0.209},
      {"target": "ESRP2 C86 (UniProt Q9H6T0)", "log2 mean competition ratio": -0.0642},
      {"target": "ESPL1 C1369 (UniProt Q14674)", "log2 mean competition ratio": 0.253},
      {"target": "ETF1 C335 (UniProt P62495)", "log2 mean competition ratio": -0.441},
      {"target": "ESCO2 C518 (UniProt Q56NI9)", "log2 mean competition ratio": 0.159},
      {"target": "EXOC8 C521 (UniProt Q8IYI6)", "log2 mean competition ratio": -0.142},
      {"target": "ELP1 C23 (UniProt O95163)", "log2 mean competition ratio": -0.198},
      {"target": "ESRRG C104", "log2 mean competition ratio": 0.106},
      {"target": "ESD C28 (UniProt P10768)", "log2 mean competition ratio": -0.301},
      {"target": "ERCC6 C143", "log2 mean competition ratio": -0.368},
      {"target": "ELP2 C204 (UniProt Q6IA86)", "log2 mean competition ratio": -0.151},
      {"target": "EMG1 C66 (UniProt Q92979)", "log2 mean competition ratio": 0.0448},
      {"target": "FAM189B C163", "log2 mean competition ratio": 0.396},
      {"target": "FAM118B C319 (UniProt Q9BPY3)", "log2 mean competition ratio": 0.298},
      {"target": "ETV6 C8 (UniProt P41212)", "log2 mean competition ratio": 0.163},
      {"target": "FAM117B C483 (UniProt Q6P1L5)", "log2 mean competition ratio": 0.0939},
      {"target": "EPC1 C797 (UniProt Q9H2F5)", "log2 mean competition ratio": 0.102},
      {"target": "ELP1 C820 (UniProt O95163)", "log2 mean competition ratio": 0.362}
    ]}
  ]
}
